Reference: paper PMC5996148
The other results are listed elsewhere or left out.

How the values were obtained:
Assay in all cases: protein microarray (ProtoArray v5.0), streptavidin-Alexa Fluor 647
Details in all cases: 3'-biotin; 20 mM Tris (pH 7.5), 5 mM MgCl2, 100 mM KCl, 0.1% Tween-20, A/T-rich and random oligonucleotide blockers; temperature not stated; high values mean tight binding
[1] = system: NEDD8-activating enzyme E1 regulatory subunit (human)
NETO1 (human) = system: NETO1 (human)
[2] = system: NF-kappa-B inhibitor epsilon (human)
[3] = system: NF-kappa-B inhibitor zeta (human)
NFKBIB (human) = system: NFKBIB (human)
[4] = system: NFU1 iron-sulfur cluster scaffold homolog, mitochondrial (human)
NFYA (human) = system: NFYA (human)
[5] = system: NGFI-A-binding protein 2 (human)
NGFRAP1 (human) = system: NGFRAP1 (human)
NIF3L1 (human) = system: NIF3L1 (human)
NINJ1 (human) = system: NINJ1 (human)
NINJ2 (human) = system: NINJ2 (human)
NIPA2 (human) = system: NIPA2 (human)
NIPSNAP3B (human) = system: NIPSNAP3B (human)
NIT2 (human) = system: NIT2 (human)
NKAIN4 (human) = system: NKAIN4 (human)
NKD2 (human) = system: NKD2 (human)
NKG2D ligand 4 (human) = system: NKG2D ligand 4 (human)
NLRP2 (human) = system: NLRP2 (human)
NMB (human) = system: NMB (human)

Question: “GGGAGGCTGAGGCAGG [G4-1 biotinylated (PQS2)]” was tested. Which binding signal [1] did it give?
Answer: -0.246 z-score

Question: And the binding signal (NETO1 (human))?
Answer: -0.341 z-score

Question: What about the binding signal [2] of the same sequence?
Answer: -0.297 z-score

Question: What about the binding signal [3] of the same sequence?
Answer: -0.339 z-score

Question: What about the binding signal (NFKBIB (human)) of the same sequence?
Answer: -0.338 z-score

Question: And the binding signal [4]?
Answer: -0.354 z-score

Question: What about the binding signal (NFYA (human)) of the same sequence?
Answer: -0.285 z-score

Question: And the binding signal [5]?
Answer: -0.344 z-score

Question: What about the binding signal (NGFRAP1 (human)) of the same sequence?
Answer: -0.268 z-score

Question: What about the binding signal (NIF3L1 (human)) of the same sequence?
Answer: -0.305 z-score

Question: And the binding signal (NINJ1 (human))?
Answer: -0.319 z-score

Question: What about the binding signal (NINJ2 (human)) of the same sequence?
Answer: -0.34 z-score

Question: What about the binding signal (NIPA2 (human)) of the same sequence?
Answer: -0.284 z-score

Question: And the binding signal (NIPSNAP3B (human))?
Answer: -0.346 z-score

Question: And the binding signal (NIT2 (human))?
Answer: -0.353 z-score

Question: What about the binding signal (NKAIN4 (human)) of the same sequence?
Answer: -0.314 z-score

Question: And the binding signal (NKD2 (human))?
Answer: -0.294 z-score

Question: And the binding signal (NKG2D ligand 4 (human))?
Answer: -0.307 z-score

Question: And the binding signal (NLRP2 (human))?
Answer: -0.33 z-score

Question: And the binding signal (NMB (human))?
Answer: -0.282 z-score
